Test results as given in publication PMC5778466.
Results are given in words; binding and its absence hold for the method and conditions named. Some binding calls cover weakened binding; strength is not graded here. Sequences can lack the tags named with a protein.

How the values were obtained:
[1] = biological target: T1, Est1 fused to the GAL4 DNA binding domain (fission yeast) (UniProt O74804); assay: two-hybrid; Matchmaker Gold; Ccq1 truncations fused to the GAL4 activation domain, partners fused to the GAL4 DNA binding domain; budding yeast, plates at 28°C for 2–3 days; Supplementary Figure S2A, its selection plate not shown (lacking adenine and histidine, or lacking histidine with 1 mM 3-AT)
T1 sequence: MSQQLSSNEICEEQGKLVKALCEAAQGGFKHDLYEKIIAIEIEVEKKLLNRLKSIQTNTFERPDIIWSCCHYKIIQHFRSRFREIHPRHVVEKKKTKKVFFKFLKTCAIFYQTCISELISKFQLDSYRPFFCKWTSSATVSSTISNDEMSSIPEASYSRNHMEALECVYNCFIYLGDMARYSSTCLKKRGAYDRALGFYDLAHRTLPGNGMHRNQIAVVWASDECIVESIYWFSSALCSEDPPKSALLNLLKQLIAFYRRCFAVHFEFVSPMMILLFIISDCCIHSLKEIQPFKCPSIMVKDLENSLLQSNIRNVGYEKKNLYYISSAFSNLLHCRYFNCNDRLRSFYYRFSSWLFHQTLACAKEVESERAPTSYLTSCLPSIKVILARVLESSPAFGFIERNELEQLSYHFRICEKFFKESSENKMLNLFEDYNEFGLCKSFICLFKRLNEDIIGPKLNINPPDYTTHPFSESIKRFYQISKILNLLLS

[2] = biological target: Ccq1(500–735), the C-terminal coiled-coil motifs region, as GAL4 fusion (fission yeast) (UniProt Q10432); assay: two-hybrid; Matchmaker Gold; Ccq1 truncations fused to the GAL4 activation domain, Ccq1 C-terminus fragments, Tpz1 or Clr3 fused to the GAL4 DNA binding domain; selection plate lacks adenine and histidine; 28°C, 2–3 days (Figures 4A, 5A)
[3] = biological target: T2, Clr3 fused to the GAL4 DNA binding domain (fission yeast) (UniProt P56523); assay: as above
T2 sequence: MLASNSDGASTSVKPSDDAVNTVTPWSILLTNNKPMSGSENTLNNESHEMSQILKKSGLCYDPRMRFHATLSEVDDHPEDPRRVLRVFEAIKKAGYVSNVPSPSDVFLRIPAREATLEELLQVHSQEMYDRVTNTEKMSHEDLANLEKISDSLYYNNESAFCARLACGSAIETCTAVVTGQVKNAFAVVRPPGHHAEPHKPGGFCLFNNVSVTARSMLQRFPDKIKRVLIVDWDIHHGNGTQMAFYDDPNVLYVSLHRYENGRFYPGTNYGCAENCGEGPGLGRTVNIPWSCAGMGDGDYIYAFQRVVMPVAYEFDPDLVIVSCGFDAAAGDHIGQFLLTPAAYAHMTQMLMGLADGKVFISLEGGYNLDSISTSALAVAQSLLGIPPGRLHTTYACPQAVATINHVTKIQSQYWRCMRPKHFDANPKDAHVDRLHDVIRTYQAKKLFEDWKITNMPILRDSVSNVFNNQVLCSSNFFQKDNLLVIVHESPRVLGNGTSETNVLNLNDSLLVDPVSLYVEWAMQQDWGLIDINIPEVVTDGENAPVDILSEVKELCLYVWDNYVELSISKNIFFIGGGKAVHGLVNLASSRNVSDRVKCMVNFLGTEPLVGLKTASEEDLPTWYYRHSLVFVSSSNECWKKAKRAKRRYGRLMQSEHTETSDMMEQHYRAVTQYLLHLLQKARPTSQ

| binding [1] | binding [2] | binding [3] | Binder |
| --- | --- | --- | --- |
| binds weakly | – | – | Ccq1(131–441) fused to the GAL4 activation domain (domain or fragment, UniProt Q10432 131-441) FSVLDIGLPMSALQRKMMHRLVQYFAFCIDHFCTGPSDSRIQEKIRLFIQSAHNIAKHPSLYDTEVRNPSAAESTNSHVSLDASNFSSYAENSSKFLFLQELFKNLSPSYSKTFFLFISNQFLANTLTQWLKSQNIDAELWAEEDAKTSQHPAIWICVSKKAPSASHFLQSCPDLSATIFYDIEAYMSVTSSLPSIQSLVLRLIHLGSIEHAIKCFQSSYNASFLVNIVGVVATLSSSSEENSEASNLSTLFEKSGNFEEILGSESHSSITEKTRDIAKNVATWLKNGENFSSWPLPPLMDLASLSVAEPR |
| binds weakly | – | – | Ccq1(63–441) fused to the GAL4 activation domain (domain or fragment, UniProt Q10432 63-441) CMRNEEPASKQREIEKFLRTDLDHSENDFLTQEVDEFPSTQQLFPIPLQNDTAFDSSEESITKSSKSSFSVLDIGLPMSALQRKMMHRLVQYFAFCIDHFCTGPSDSRIQEKIRLFIQSAHNIAKHPSLYDTEVRNPSAAESTNSHVSLDASNFSSYAENSSKFLFLQELFKNLSPSYSKTFFLFISNQFLANTLTQWLKSQNIDAELWAEEDAKTSQHPAIWICVSKKAPSASHFLQSCPDLSATIFYDIEAYMSVTSSLPSIQSLVLRLIHLGSIEHAIKCFQSSYNASFLVNIVGVVATLSSSSEENSEASNLSTLFEKSGNFEEILGSESHSSITEKTRDIAKNVATWLKNGENFSSWPLPPLMDLASLSVAEPR |
| binds | – | – | full length Ccq1 fused to the GAL4 activation domain (protein, UniProt Q10432 1-735) MSEINDFTNSIIINESDTKYEVYSEVNSSNRWIAKEDCPSPLEDVWLLKLAGHKRKLEEPLSCMRNEEPASKQREIEKFLRTDLDHSENDFLTQEVDEFPSTQQLFPIPLQNDTAFDSSEESITKSSKSSFSVLDIGLPMSALQRKMMHRLVQYFAFCIDHFCTGPSDSRIQEKIRLFIQSAHNIAKHPSLYDTEVRNPSAAESTNSHVSLDASNFSSYAENSSKFLFLQELFKNLSPSYSKTFFLFISNQFLANTLTQWLKSQNIDAELWAEEDAKTSQHPAIWICVSKKAPSASHFLQSCPDLSATIFYDIEAYMSVTSSLPSIQSLVLRLIHLGSIEHAIKCFQSSYNASFLVNIVGVVATLSSSSEENSEASNLSTLFEKSGNFEEILGSESHSSITEKTRDIAKNVATWLKNGENFSSWPLPPLMDLASLSVAEPRDSQPSVSQVNDTFVKSSDSTFPSSQSMQSPSKLHSLTSNATDLLSSSSLKKNFFSQQEADEVELSNNYDLQGAAVQYLQRRLRMVEDELHEAINSKNVQQSRSEELEQQISKLTDNLQEYRNTVRELKLDLEKSKKKNEDLSKLEVEKVEEIANLKKELTHLAKQQEFGFKYVQEFSNEDLQGKLIEANEKNYKLTQLLKTQKEDADFITNQYQNASTFAAEQSKEVAKLQAECKRLQAINSKVMEEVKVYNDSRVEALLAKVSSLEETLKILEQKSLPKFTPHNQSPRIIDSN |
| – | binds | binds | Ccq1(500–735), the C-terminal coiled-coil motifs region, as GAL4 fusion (domain or fragment, UniProt Q10432 500-735) ADEVELSNNYDLQGAAVQYLQRRLRMVEDELHEAINSKNVQQSRSEELEQQISKLTDNLQEYRNTVRELKLDLEKSKKKNEDLSKLEVEKVEEIANLKKELTHLAKQQEFGFKYVQEFSNEDLQGKLIEANEKNYKLTQLLKTQKEDADFITNQYQNASTFAAEQSKEVAKLQAECKRLQAINSKVMEEVKVYNDSRVEALLAKVSSLEETLKILEQKSLPKFTPHNQSPRIIDSN |
| – | – | binds weakly | Ccq1(1–441) fused to the GAL4 activation domain (domain or fragment, UniProt Q10432 1-441) MSEINDFTNSIIINESDTKYEVYSEVNSSNRWIAKEDCPSPLEDVWLLKLAGHKRKLEEPLSCMRNEEPASKQREIEKFLRTDLDHSENDFLTQEVDEFPSTQQLFPIPLQNDTAFDSSEESITKSSKSSFSVLDIGLPMSALQRKMMHRLVQYFAFCIDHFCTGPSDSRIQEKIRLFIQSAHNIAKHPSLYDTEVRNPSAAESTNSHVSLDASNFSSYAENSSKFLFLQELFKNLSPSYSKTFFLFISNQFLANTLTQWLKSQNIDAELWAEEDAKTSQHPAIWICVSKKAPSASHFLQSCPDLSATIFYDIEAYMSVTSSLPSIQSLVLRLIHLGSIEHAIKCFQSSYNASFLVNIVGVVATLSSSSEENSEASNLSTLFEKSGNFEEILGSESHSSITEKTRDIAKNVATWLKNGENFSSWPLPPLMDLASLSVAEPR |
